{"sequences": {"note": "Sequences of proteins named here, by UniProt entry; tags and fusion partners are left off. A change or cut given only in a name is not applied to a line headed by its entry.", "UniProt P46850": "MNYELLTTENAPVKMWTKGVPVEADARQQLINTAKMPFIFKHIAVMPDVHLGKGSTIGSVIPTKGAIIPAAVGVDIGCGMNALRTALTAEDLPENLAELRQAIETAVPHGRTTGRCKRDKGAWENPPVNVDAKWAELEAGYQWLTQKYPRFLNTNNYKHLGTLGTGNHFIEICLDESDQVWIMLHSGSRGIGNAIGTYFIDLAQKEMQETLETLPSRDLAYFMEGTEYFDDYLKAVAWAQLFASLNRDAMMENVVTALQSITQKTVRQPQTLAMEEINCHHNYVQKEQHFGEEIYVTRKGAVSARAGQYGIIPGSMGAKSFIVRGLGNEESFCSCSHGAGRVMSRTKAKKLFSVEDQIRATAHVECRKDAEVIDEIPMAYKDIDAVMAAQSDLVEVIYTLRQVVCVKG", "UniProt P75764": "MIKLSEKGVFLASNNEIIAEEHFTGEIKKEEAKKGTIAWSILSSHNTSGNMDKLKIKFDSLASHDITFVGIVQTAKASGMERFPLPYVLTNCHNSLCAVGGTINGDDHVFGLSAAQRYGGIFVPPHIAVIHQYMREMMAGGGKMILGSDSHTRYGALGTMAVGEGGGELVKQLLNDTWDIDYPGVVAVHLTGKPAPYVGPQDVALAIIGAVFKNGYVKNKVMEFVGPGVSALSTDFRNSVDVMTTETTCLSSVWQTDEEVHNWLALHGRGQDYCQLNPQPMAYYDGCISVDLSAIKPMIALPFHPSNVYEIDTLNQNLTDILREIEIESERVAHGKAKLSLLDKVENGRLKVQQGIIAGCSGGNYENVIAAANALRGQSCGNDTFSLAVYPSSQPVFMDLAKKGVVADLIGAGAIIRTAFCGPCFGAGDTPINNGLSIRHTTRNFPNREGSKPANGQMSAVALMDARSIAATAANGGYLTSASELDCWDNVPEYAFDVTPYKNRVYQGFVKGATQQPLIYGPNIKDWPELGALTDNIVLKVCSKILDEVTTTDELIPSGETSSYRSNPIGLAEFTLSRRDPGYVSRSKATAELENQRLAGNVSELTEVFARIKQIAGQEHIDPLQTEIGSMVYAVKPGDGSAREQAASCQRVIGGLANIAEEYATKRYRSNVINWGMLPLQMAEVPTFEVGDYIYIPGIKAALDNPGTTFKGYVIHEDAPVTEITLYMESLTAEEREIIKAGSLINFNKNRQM", "UniProt P75672": "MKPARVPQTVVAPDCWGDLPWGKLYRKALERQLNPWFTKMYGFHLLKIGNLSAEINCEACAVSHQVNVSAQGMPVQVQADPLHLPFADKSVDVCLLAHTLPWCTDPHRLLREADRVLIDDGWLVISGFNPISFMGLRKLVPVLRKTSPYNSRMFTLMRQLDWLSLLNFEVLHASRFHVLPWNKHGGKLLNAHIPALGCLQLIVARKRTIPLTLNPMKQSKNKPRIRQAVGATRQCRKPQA", "UniProt P46855": "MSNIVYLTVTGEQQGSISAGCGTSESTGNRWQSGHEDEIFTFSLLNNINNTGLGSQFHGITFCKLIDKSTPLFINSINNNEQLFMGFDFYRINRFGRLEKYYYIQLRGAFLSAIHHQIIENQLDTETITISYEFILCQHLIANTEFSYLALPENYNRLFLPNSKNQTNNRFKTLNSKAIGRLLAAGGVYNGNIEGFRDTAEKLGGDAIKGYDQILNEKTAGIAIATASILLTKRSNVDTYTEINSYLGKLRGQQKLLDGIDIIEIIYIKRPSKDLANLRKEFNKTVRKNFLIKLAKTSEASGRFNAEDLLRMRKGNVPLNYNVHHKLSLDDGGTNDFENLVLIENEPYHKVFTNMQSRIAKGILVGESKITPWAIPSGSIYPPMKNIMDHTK", "UniProt P56580": "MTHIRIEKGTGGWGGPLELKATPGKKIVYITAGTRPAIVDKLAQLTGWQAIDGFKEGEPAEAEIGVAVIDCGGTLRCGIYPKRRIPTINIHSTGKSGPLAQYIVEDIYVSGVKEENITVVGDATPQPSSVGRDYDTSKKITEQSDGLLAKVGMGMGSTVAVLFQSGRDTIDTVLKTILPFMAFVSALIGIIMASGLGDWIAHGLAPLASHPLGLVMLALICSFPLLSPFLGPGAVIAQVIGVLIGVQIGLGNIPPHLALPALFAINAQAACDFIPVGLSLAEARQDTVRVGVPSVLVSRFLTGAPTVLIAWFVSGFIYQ", "UniProt P46887": "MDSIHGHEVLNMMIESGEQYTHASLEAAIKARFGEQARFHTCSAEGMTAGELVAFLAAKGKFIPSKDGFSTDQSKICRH", "UniProt P69423": "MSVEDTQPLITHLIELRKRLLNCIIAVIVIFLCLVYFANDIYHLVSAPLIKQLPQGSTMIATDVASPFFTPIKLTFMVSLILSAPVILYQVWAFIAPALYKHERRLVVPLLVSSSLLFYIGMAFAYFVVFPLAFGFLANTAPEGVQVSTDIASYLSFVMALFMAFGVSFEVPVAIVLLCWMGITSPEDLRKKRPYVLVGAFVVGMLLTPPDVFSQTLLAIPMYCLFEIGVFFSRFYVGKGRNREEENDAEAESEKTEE", "UniProt P64624": "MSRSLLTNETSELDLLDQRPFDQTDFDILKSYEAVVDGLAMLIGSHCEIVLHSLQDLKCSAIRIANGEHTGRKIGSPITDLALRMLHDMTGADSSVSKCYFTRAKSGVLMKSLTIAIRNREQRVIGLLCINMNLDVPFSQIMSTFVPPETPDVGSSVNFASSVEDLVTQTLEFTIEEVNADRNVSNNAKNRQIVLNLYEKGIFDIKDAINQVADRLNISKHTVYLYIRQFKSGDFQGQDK", "UniProt P56579": "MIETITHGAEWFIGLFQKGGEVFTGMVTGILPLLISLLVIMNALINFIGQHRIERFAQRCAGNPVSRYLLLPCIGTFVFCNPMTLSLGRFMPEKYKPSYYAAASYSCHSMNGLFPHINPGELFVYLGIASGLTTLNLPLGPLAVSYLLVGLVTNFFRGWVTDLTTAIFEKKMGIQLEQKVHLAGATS", "UniProt P75820": "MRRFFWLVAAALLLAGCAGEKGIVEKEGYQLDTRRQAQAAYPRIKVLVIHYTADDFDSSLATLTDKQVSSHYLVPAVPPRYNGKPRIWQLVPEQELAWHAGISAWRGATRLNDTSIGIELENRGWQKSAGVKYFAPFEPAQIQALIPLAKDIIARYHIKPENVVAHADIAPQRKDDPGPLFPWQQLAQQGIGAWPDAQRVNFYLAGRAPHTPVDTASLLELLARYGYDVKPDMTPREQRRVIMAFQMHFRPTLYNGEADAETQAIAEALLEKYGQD", "UniProt P52123": "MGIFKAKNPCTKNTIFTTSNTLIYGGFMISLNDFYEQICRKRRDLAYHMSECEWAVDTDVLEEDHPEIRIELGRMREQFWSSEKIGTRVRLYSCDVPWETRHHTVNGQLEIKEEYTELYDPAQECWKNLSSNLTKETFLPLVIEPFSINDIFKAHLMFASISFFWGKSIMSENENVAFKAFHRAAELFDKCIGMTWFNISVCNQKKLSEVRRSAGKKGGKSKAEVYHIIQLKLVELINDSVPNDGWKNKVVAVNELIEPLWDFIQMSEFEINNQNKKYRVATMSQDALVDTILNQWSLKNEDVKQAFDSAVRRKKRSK"}, "source": "the supplement of paper PMC12819154", "about": "“High-throughput peptide-centric local stability assay extends protein–ligand identification to membrane proteins, tissues and bacteria” (Nature Structural & Molecular Biology, 2025)", "note": "The other results are listed elsewhere or left out. Most values lie at the level of the controls, where differences are scatter.", "data": [{"compound": "CC1(C)S[C@@H]2[C@H](NC(=O)[C@H](N)c3ccccc3)C(=O)N2[C@H]1C(=O)O [ampicillin]", "assay": "log2 fold change of tryptic peptide abundance, ligand vs vehicle (limited proteolysis) (log2 ratio); higher = more trypsin-susceptible (destabilized)", "conditions": "ligand concentration: 10 uM; sample: E. coli crude lysate", "values": [{"target": "UniProt P46850 (peptide sequence: EQHFGEEIYVTRK, peptide start residue: 287)", "log2 fold change": -0.4}, {"target": "UniProt P75764 (peptide sequence: EQAASCQR, peptide start residue: 644)", "log2 fold change": 0.566}, {"target": "UniProt P75672 (peptide sequence: KTSPYNSRMFTLMR, peptide start residue: 145)", "log2 fold change": -0.000847}, {"target": "UniProt P46855 (peptide sequence: INRFGRLEK, peptide start residue: 92)", "log2 fold change": -0.226}, {"target": "UniProt P56580 (peptide sequence: RRIPTINIHSTGK, peptide start residue: 83)", "log2 fold change": 0.765}, {"target": "UniProt P46887 (peptide sequence: GKFIPSKDGFSTDQSK, peptide start residue: 60)", "log2 fold change": 0.0732}, {"target": "UniProt P69423 (peptide sequence: NREEENDAEAESEKTEE, peptide start residue: 242)", "log2 fold change": -0.0424}, {"target": "UniProt P64624 (peptide sequence: MLHDMTGADSSVSKCYFTR, peptide start residue: 85)", "log2 fold change": -0.328}, {"target": "UniProt P56579 (peptide sequence: MGIQLEQK, peptide start residue: 172)", "log2 fold change": -0.105}, {"target": "UniProt P75820 (peptide sequence: EGYQLDTR, peptide start residue: 27)", "log2 fold change": 0.52}, {"target": "UniProt P52123 (peptide sequence: SKAEVYHIIQLK, peptide start residue: 221)", "log2 fold change": -0.507}]}]}
